Source: patent US10633419B2 (BRISTOL-MYERS SQUIBB COMPANY, priority 2014, dated 2020)

What was measured:
[1] = solid-phase peptide synthesis; conditions: whole synthesis; for final LC-MS purity: LCMS analysis
[2] = general procedure: Fmoc solid-phase peptide synthesis; 2-chlorotrityl resin; HATU, HCTU; conditions: whole synthesis; for final LC-MS purity: LCMS analysis

(6S,14S)-1-((7S,13R,16S,19S,22S,25S,28S,31S,33aS,35R,39S,42S,44aS,50S,52aR)-31-((1H-indol-3-yl)methyl)-50-(2-amino-2-oxoethyl)-28-(2-aminoethyl)-42-(aminomethyl)-19,22-dibutyl-25-((1-(carboxymethyl)-1H-indol-3-yl)methyl)-35-hydroxy-7-(4-hydroxybenzyl)-16,39-diisobutyl-20,23-dimethyl-6,9,15,18,21,24,27,30,33,38,41,44,49,52-tetradecaoxopentacontahydro-1H-pyrido[1,2-g]dipyrrolo[1,2-m:1′,2′-v][1,4,7,10,13,16,19,22,25,28,31,34,37,40,43]thiatetradecaazacyclopentatetracontin-13-yl)-1,4,9,16-tetraoxo-2,5,10,15-tetraazadotriacontane-6,14,32-tricarboxylic acid
isolated mass ([1]; scale 0.1 mmol, 2 TFA): 3.66 mg | isolated yield ([1]; scale 0.1 mmol, 2 TFA): 1.296% yield

ClAc-F3Phe-mPhe-mNle-dHyp-Asp-Val-mPhe-Asp-dPro-Trp-Tyr-Leu-Cys-Gly-[(S)-propargylglycine]
final LC-MS purity ([1]; scale 0.1 mmol): 100% | isolated mass ([1]; scale 0.1 mmol): 70.7 mg

ClAc-F3Phe-mPhe-mNle-dPro-Asp-Val-mPhe-Orn-dPro-Trp-Tyr-Leu-Cys-Gly-[(S)-propargylglycine]
final LC-MS purity ([1]; scale 0.1 mmol): 95% | isolated mass ([1]; scale 0.1 mmol): 88.5 mg

ClAc-Tyr-Pip-Asn-Pro-Dap-Leu-Hyp-Trp-Dab-[(S)-2-amino-3-(1-(carboxymethyl)-1H-indol-3-yl)propanoic acid]-[N-Me]Nle-[N-Me]Nle-Leu-Cys-Gly-[3-(2-(2-aminoethoxy)ethoxy)propanoic acid]-Asp(OtBu)-[Modified resin 13B]
isolated mass ([1]; scale 0.1 mmol, 2 TFA): 18.29 mg | isolated yield ([1]; scale 0.1 mmol, 2 TFA): 5.85% yield

ClAc-Tyr-Pip-Asn-Pro-Dap-Leu-Hyp-Trp-Dab-[(S)-2-amino-3-(1-(carboxymethyl)-1H-indol-3-yl)propanoic acid]-[N-Me]Nle-[N-Me]Nle-Leu-Cys-Gly-[3-(2-aminoethoxy)propanoic acid]-Asp(OtBu)-[Modified resin 13B]
isolated mass ([1]; scale 0.1 mmol, 2 TFA): 22.02 mg | isolated yield ([1]; scale 0.1 mmol, 2 TFA): 7.55% yield

ClAc-Tyr-Pip-Asn-Pro-Dap-Leu-Hyp-Trp-Dab-[(S)-2-amino-3-(1-(carboxymethyl)-1H-indol-3-yl)propanoic acid]-[N-Me]Nle-[N-Me]Nle-Leu-Cys-Gly-[4-aminobutanoic acid]-Asp(OtBu)-[Modified resin 13B]
isolated mass ([1]; scale 0.1 mmol, 2 TFA): 17.91 mg | isolated yield ([1]; scale 0.1 mmol, 2 TFA): 6.08% yield

ClAc-Tyr-Pip-Asn-Pro-Dap-Leu-Hyp-Trp-Dab-[(S)-2-amino-3-(1-(carboxymethyl)-1H-indol-3-yl)propanoic acid]-[N-Me]Nle-[N-Me]Nle-Leu-Cys-Gly-[5-aminopentanoic acid]-Asp(OtBu)-[Modified resin 13B]
isolated mass ([1]; scale 0.1 mmol, 2 TFA): 10.63 mg | isolated yield ([1]; scale 0.1 mmol, 2 TFA): 3.48% yield

ClAc-Tyr-Pip-Asn-Pro-Dap-Leu-Hyp-Trp-Dab-[(S)-2-amino-3-(1-(carboxymethyl)-1H-indol-3-yl)propanoic acid]-[N-Me]Nle-[N-Me]Nle-Leu-Cys-Gly-[Modified resin 13D]
isolated mass ([1]; scale 0.1 mmol, 2 TFA): 20.36 mg | isolated yield ([1]; scale 0.1 mmol, 2 TFA): 6.90% yield

ClAc-Tyr-[N-Me]Ala-Asn-Pro-Dap-Leu-Hyp-Trp-Dab-[(S)-2-amino-3-(1-(carboxymethyl)-1H-indol-3-yl)propanoic acid]-[N-Me]Nle-[N-Me]Nle-Asp-Cys-[Pra]
final LC-MS purity ([2]; scale 0.8 mmol): 100% | isolated mass ([2]; scale 0.8 mmol): 147.7 mg

ClAc-Tyr-[N-Me]Ala-Asn-Pro-Dap-Leu-Hyp-Trp-Dab-[(S)-2-amino-3-(1-(carboxymethyl)-1H-indol-3-yl)propanoic acid]-[N-Me]Nle-[N-Me]Nle-Glu-Cys-Gly-[Pra]
final LC-MS purity ([2]; scale 0.4 mmol): 97% | isolated mass ([2]; scale 0.4 mmol): 46.7 mg

ClAc-Tyr-[N-Me]Ala-Asn-Pro-Dap-Leu-Hyp-Trp-Dab-[(S)-2-amino-3-(1-(carboxymethyl)-1H-indol-3-yl)propanoic acid]-[N-Me]Nle-[N-Me]Nle-Glu-Cys-[Pra]
final LC-MS purity ([2]; scale 0.8 mmol): 100% | isolated mass ([2]; scale 0.8 mmol): 154.1 mg

ClAc-Tyr-[N-Me]Ala-Asn-Pro-Dap-Leu-Hyp-Trp-Dab-[(S)-2-amino-3-(1-(carboxymethyl)-1H-indol-3-yl)propanoic acid]-[N-Me]Nle-[N-Me]Nle-Leu-Cys-Gly-Gly-Gly-[(S)-propargylglycine]
final LC-MS purity ([2]; scale 0.8 mmol): 98% | isolated mass ([2]; scale 0.8 mmol): 132.1 mg

ClAc-Tyr-[N-Me]Ala-Asn-Pro-Dap-Leu-Hyp-Trp-Dab-[(S)-2-amino-3-(1-(carboxymethyl)-1H-indol-3-yl)propanoic acid]-[N-Me]Nle-[N-Me]Nle-Leu-Cys-Gly-Gly-[(S)-propargylglycine]
final LC-MS purity ([2]; scale 0.8 mmol): 99% | isolated mass ([2]; scale 0.8 mmol): 102.7 mg

ClAc-Tyr-[N-Me]Ala-Asn-Pro-Dap-Leu-Hyp-Trp-Dab-[(S)-2-amino-3-(1-(carboxymethyl)-1H-indol-3-yl)propanoic acid]-[N-Me]Nle-[N-Me]Nle-Leu-Cys-Gly-[Modified resin 13D]
isolated mass ([1]; scale 0.1 mmol, 2 TFA): 21.88 mg | isolated yield ([1]; scale 0.1 mmol, 2 TFA): 7.91% yield

ClAc-Tyr-[N-Me]Ala-Asn-Pro-Dap-Leu-Hyp-Trp-Dab-[(S)-2-amino-3-(1-(carboxymethyl)-1H-indol-3-yl)propanoic acid]-[N-Me]Nle-[N-Me]Nle-Leu-Cys-[Pra]
final LC-MS purity ([2]; scale 0.8 mmol): 100% | isolated mass ([2]; scale 0.8 mmol): 152.1 mg

ClAc-Tyr-[N-Me]Ala-Asn-Pro-Dap-Leu-Hyp-Trp-Ser-Bzt-[N-Me]Nle-[N-Me]Nle-Arg-Cys-Gly-Gly-[(S)-azido-Dab]
final LC-MS purity ([1]; scale 0.1 mmol): 100% | isolated mass ([1]; scale 0.1 mmol): 9.3 mg

ClAc-Tyr-[N-Me]Ala-Asn-Pro-Dap-Leu-Hyp-Trp-Ser-Bzt-[N-Me]Nle-[N-Me]Nle-Arg-Cys-Gly-[(S)-azido-Dab]
final LC-MS purity ([1]; scale 0.2 mmol): 100% | isolated mass ([1]; scale 0.2 mmol): 50.4 mg

ClAc-Tyr-[N-Me]Ala-Asn-Pro-Dap-Leu-Hyp-Trp-Ser-Bzt-[N-Me]Nle-[N-Me]Nle-Arg-Cys-Gly-[(S)-propargylglycine]
final LC-MS purity ([1]; scale 0.2 mmol): 100% | isolated mass ([1]; scale 0.2 mmol): 37.8 mg

ClAc-Tyr-[N-Me]Ala-Asn-Pro-Dap-Leu-Hyp-Trp-Ser-[(S)-2-amino-3-(1-(carboxymethyl)-1H-indol-3-yl)propanoic acid]-[N-Me]Nle-[N-Me]Nle-Leu-Cys-Gly-[(S)-propargylglycine]
final LC-MS purity ([1]; scale 0.2 mmol): 99% | isolated mass ([1]; scale 0.2 mmol): 39.9 mg

ClAc-Tyr-hPro-Asn-Pro-Dap-Leu-Hyp-Trp-Dab-[(S)-2-amino-3-(1-(carboxymethyl)-H-indol-3-yl)propanoic acid]-mNle-mNle-Leu-Cys-Gly-[(S)-propargylglycine]
final LC-MS purity ([1]; scale 0.1 mmol): 98% | isolated mass ([1]; scale 0.1 mmol): 158.7 mg

ClAc-Tyr-hPro-Asn-Pro-DapMe-Leu-Hyp-Trp-Dab-[(S)-2-amino-3-(1-(carboxymethyl)-1H-indol-3-yl)propanoic acid]-mNle-mNle-Glu-Cys-Gly-[(S)-propargylglycine]
final LC-MS purity ([1]; scale 0.1 mmol): 100% | isolated mass ([1]; scale 0.1 mmol): 218.0 mg

ClAc-Tyr-hPro-Asn-Pro-DapMe-Leu-Hyp-Trp-Dab-[(S)-2-amino-3-(1-(carboxymethyl)-1H-indol-3-yl)propanoic acid]-mNle-mNle-Leu-Cys-Gly-[(S)-propargylglycine]
final LC-MS purity ([1]; scale 0.1 mmol): 98% | isolated mass ([1]; scale 0.1 mmol): 241.9 mg

ClAc-Tyr-mAla-Asn-Pro-Dap-Leu-Hyp-Trp-Ser-Trp-mNle-mNle-Arg-Cys-Gly-[(S)-propargylglycine]
final LC-MS purity ([1]; scale 0.2 mmol): 98% | isolated mass ([1]; scale 0.2 mmol): 44.2 mg

ClAc-Tyr-mAla-Asn-Pro-Dap-Leu-Hyp-Trp-Ser-[(S)-2-amino-3-(1-(carboxymethyl)-1H-indol-3-yl)propanoic acid]-mNle-mNle-E-Cys-Gly-[(S)-propargylglycine]
final LC-MS purity ([1]; scale 0.1 mmol): 98% | isolated mass ([1]; scale 0.1 mmol): 42.1 mg

ClAc-Tyr-mAla-Asp-Pro-His-Gln-Hyp-Trp-Ser-Trp-mNle-mNle-Glu-Cys-Gly-[(S)-propargylglycine]
final LC-MS purity ([1]; scale 0.2 mmol): 98% | isolated mass ([1]; scale 0.2 mmol): 23.9 mg

ClAc-Tyr-mAla-Asp-Pro-His-Gln-Hyp-Trp-Ser-Trp-mNle-mNle-Glu-Cys-Gly-[(S)-propargylglycine]-Gly
final LC-MS purity ([1]; scale 0.1 mmol): 98% | isolated mass ([1]; scale 0.1 mmol): 20.2 mg

ClAc-Tyr-mAla-Asp-Pro-His-Lys-Hyp-Trp-Lys-Trp-mNle-mNle-Glu-Cys-Gly-[(S)-propargylglycine]
final LC-MS purity ([1]; scale 0.2 mmol): 99% | isolated mass ([1]; scale 0.2 mmol): 87.3 mg

ClAc-Tyr-mAla-Asp-Pro-His-Lys-Hyp-Trp-Lys-Trp-mNle-mNle-Glu-Cys-Gly-[(S)-propargylglycine]-Asp
final LC-MS purity ([1]; scale 0.2 mmol): 100% | isolated mass ([1]; scale 0.2 mmol): 59.5 mg

ClAc-Tyr-mAla-Asp-Pro-His-Lys-Hyp-Trp-Lys-Trp-mNle-mNle-Glu-Cys-Gly-[(S)-propargylglycine]-Gly
final LC-MS purity ([1]; scale 0.2 mmol): 99% | isolated mass ([1]; scale 0.2 mmol): 97.7 mg

ClAc-Tyr-mAla-Asp-Pro-His-Lys-Hyp-Trp-Lys-[(S)-2-amino-3-(1-(carboxymethyl)-1H-indol-3-yl)propanoic acid]-mNle-mNle-Glu-Cys-Gly-[(S)-propargylglycine]
final LC-MS purity ([1]; scale 0.2 mmol): 100% | isolated mass ([1]; scale 0.2 mmol): 78.3 mg

ClAc-Tyr-mAla-Asp-Pro-His-Lys-Hyp-Trp-Lys-“Trp”-mNle-mNle-Glu-Cys-Gly-[(S)-propargylglycine]-Asp
final LC-MS purity ([1]; scale 0.2 mmol): 94% | isolated mass ([1]; scale 0.2 mmol): 66.6 mgs

ClAc-Tyr-mAla-Asp-Pro-His-Lys-Hyp-Trp-Lys-“Trp”-mNle-mNle-Glu-Cys-Gly-[(S)-propargylglycine]-Gly
final LC-MS purity ([1]; scale 0.2 mmol): 100% | isolated mass ([1]; scale 0.2 mmol): 57.9 mgs

ClAc-[p-Methoxyphenylalanine]-Pip-Asn-Pro-His-Gln-Hyp-Trp-Dab-[(S)-2-amino-3-(1-(carboxymethyl)-1H-indol-3-yl)propanoic acid]-[N-Me]Nle-[N-Me]Nle-Leu-Cys-Gly-Asp(OtBu)-[Modified resin 13B]
isolated mass ([1]; scale 0.1 mmol, 2 TFA): 10.73 mg | isolated yield ([1]; scale 0.1 mmol, 2 TFA): 3.53% yield

ClAc-[p-Methoxyphenylalanine]-Pip-Asp-Pro-His-Gln-Hyp-Trp-Dab-[(S)-2-amino-3-(1-(carboxymethyl)-1H-indol-3-yl)propanoic acid]-[N-Me]Nle-[N-Me]Nle-Leu-Cys-Gly-Asp(OtBu)-[Modified resin 13B]
isolated mass ([1]; scale 0.1 mmol, 2 TFA): 12.14 mg | isolated yield ([1]; scale 0.1 mmol, 2 TFA): 4.22% yield
